From patent publication US20170044238A1
Results are given in words; binding and its absence hold for the method and conditions named. Some results given as binding are weak or reduced against the parent protein; the word gives no strength.

Tests used:
human lysozyme (human) [1] = target: T1, human lysozyme (human) (UniProt P61626); experiment: SPR (BIACORE 3000), human lysozyme injected over the immobilized VL
T1 sequence (looked up): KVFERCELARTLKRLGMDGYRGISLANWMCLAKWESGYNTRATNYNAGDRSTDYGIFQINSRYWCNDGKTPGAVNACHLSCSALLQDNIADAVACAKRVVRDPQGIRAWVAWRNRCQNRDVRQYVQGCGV

human lysozyme (human) [2] = target: T1, human lysozyme (human); experiment: phage ELISA, phage-displayed VL on immobilized human lysozyme
human lysozyme (human) [3] = target: T1, human lysozyme (human); experiment: SPR, human lysozyme over immobilized VL
human lysozyme (human) [4] = target: T1, human lysozyme (human); experiment: SPR, human lysozyme over immobilized VL (FIG. 15)

binding (human lysozyme (human) [1]): binds | binding (human lysozyme (human) [2]): binds | binding (human lysozyme (human) [3]): binds | binding (human lysozyme (human) [4]): binds
B1: HVLHLYS (antibody, V domains shown, not shown: small tags and cut ends)
V domain: DIQMTQSPSSLSASVGDRVTITCQASQSIYSKLYWYQQKPGKAPKLLCFPASLLWSGVPSRFSCSGSGTDFTLTISNLQPEDFATYYCLQNAADPHRTFGHGTKVRL
